Measured values as given in PubChem BioAssay AID1671190 (National Center for Advancing Translational Sciences (NCATS), 2021).
Where “and” joins values, the source holds several entries; their conditions need not be identical. Equal values may be shown once. In all, about 580,000 compounds went through this assay and about 6,100 (1.1%) were called active. The shares of active, inactive and inconclusive entries below differ from those in the screen. Calls follow the shape of the dose curve; as a rule, active = well fitted inhibition curve with a large enough effect; inconclusive = small, poorly fitted or top-dose-only effect, or another doubt; inactive = no such curve, though single readings can be large or run the other way. Where the call is inconclusive, the potency comes from a doubtful curve fit.
Potency is read from the fitted curve at half-maximal effect.

Protein sequences, listed by entry. Tags and fused reporters are not part of them.
UniProt P18054, whole entry, looked up: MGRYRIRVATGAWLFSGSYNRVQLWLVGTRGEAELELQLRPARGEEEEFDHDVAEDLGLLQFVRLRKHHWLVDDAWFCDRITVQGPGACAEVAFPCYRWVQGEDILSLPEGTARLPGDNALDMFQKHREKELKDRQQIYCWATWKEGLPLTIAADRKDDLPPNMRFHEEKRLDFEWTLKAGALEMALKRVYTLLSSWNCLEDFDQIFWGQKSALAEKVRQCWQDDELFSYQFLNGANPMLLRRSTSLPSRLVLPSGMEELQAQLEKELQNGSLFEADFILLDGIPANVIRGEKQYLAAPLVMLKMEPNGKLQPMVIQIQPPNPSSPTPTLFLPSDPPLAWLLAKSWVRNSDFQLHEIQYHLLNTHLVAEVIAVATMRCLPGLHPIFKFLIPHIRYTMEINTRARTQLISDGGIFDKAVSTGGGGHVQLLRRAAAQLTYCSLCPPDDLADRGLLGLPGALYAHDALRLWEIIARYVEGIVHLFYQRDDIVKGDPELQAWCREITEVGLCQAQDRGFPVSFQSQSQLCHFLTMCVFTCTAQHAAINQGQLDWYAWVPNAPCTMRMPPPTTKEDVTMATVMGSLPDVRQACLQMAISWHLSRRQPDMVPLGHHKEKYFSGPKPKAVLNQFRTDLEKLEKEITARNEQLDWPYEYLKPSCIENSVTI

These molecules were tested against Polyunsaturated fatty acid lipoxygenase ALOX12 (Homo sapiens) (UniProt P18054) (assay: Primary qHTS assay for inhibitors of human arachidonate 12S-lipoxygenase (ALOX12): Round 2). Details: purified 12hLO, xylenol orange hydroperoxide absorbance; series mostly up to 108 µM.
In short: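 Purified human 12hLO (150 nM final) in 25 mM Hepes, 0.01% Triton X-100, pH 7.0 was preincubated 15 min at room temperature with compound. Then 40 uM arachidonic acid was added, 30 min. Hydroperoxide was read by Fe-XO absorbance ratio 573/405 nm.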
`N#CC1=C(N)Oc2cc(N)ccc2C1c1ccccc1F` (stereo not drawn) was tested, and the Potency was “inactive”. For `Cc1ccc(S(=O)(=O)N2CCN(c3nc(-c4ccccc4)nc4ccccc34)CC2)cc1`, the Potency was “inactive”. With `CC(Nc1ccccc1CO)C(=O)Nc1cccc(Cl)c1Cl` (stereo not drawn) the Potency was “inactive”. In the case of `Cc1ccc(C)c(-c2nnc(NC(=O)c3ccc([N+](=O)[O-])o3)o2)c1`, the Potency was inconclusive: 44.7 µM [inhibitor, partial curve, poor fit]. With `C[C@@H](NCCCn1ccc(NC(=O)OCc2ccccc2)nc1=O)c1cccc2ccccc12` the Potency was inconclusive: 89.1 µM [inhibitor, single point]. With `C=CCN1C(C(=O)OC)CN(Cc2cn(Cc3ccc(C)cc3)nn2)CCS1(=O)=O` (stereo not drawn) the Potency was inconclusive: 15.8 µM [inhibitor, full curve, poor fit]. For `CC(=O)N/C(=C\c1ccccc1)C(=O)OCC(=O)Nc1cc(S(=O)(=O)N(C)C)ccc1Cl`, the Potency was “inactive”. `OCC1CCCN(c2ccc(-c3nc(-c4cccc(C(F)(F)F)c4)no3)cn2)C1` (stereo not drawn) was tested, and the Potency was inconclusive: 89.1 µM [inhibitor, partial curve, poor fit]. For `CCOC(=O)c1c(NC(=O)c2ccc(S(=O)(=O)N3CCOCC3)cc2)sc2c1CC(C)(C)NC2(C)C`, the Potency was “inactive”. With `CCOC(=O)C1=NNC(C(=O)c2ccc(C)cc2)C1c1ccc(OC)cc1` (stereo not drawn) the Potency was inconclusive: 44.7 µM [inhibitor, partial curve, poor fit]. With `NC(=O)c1nnn(Cc2cc(Cl)c(C(=O)c3ccc(Cl)cc3)c(Cl)c2)c1N` the Potency was inconclusive: 44.7 µM [inhibitor, partial curve, poor fit]. For `CC(=O)c1sc2c(c1C)c(=O)n(-c1ccc(Cl)cc1)c(=O)n2Cc1cc(=O)n2cc(Cl)ccc2n1`, the Potency was inconclusive: 39.8 µM [inhibitor, full curve, poor fit]. In the case of `CSc1nc2c([nH]1)c(=S)n(C)c(=O)n2C`, the Potency was “inactive”. In the case of `CC1=C(C(=O)Nc2ccccc2C(=O)NCCc2ccco2)SCCO1`, the Potency was inconclusive: 1.41 µM [inhibitor, full curve, poor fit]. For `COc1ccc(/C=C2/C(=N)N3N=C(CC(=O)N4CCCC4)SC3=NC2=O)cc1`, the Potency was inconclusive: 56.2 µM [inhibitor, partial curve, poor fit]. `Cn1nc(C(F)(F)F)c(Cl)c1C(=O)NC1CCCC1` was tested, and the Potency was inconclusive: 1.12 µM [inhibitor, full curve, poor fit]. For `O=C(NCCO)c1ccccc1O`, the Potency was “inactive”. `Cc1ccc(N2NC3(CCCCC3)NC2=S)cc1` was tested, and the Potency was inconclusive: 0.562 µM [inhibitor, full curve, poor fit]. For `CCCSc1nc2sc3c(c2c(=O)n1-c1ccccc1)CCC(C)C3` (stereo not drawn), the Potency was inconclusive: 89.1 µM [inhibitor, partial curve, poor fit]. `CC1CCN(C(=O)C2CCN(C(=O)N3CC4CC(C3)[C@H]3CCCC(=O)N3C4)CC2)CC1` (stereo partly drawn) was tested, and the Potency was “inactive”. With `C[C@@H]1CN([C@@H](C)CO)C(=O)c2cc(Br)cnc2O[C@H]1CN(C)Cc1cccc(C(=O)O)c1` the Potency was inconclusive: 158 µM [inhibitor, partial curve, poor fit]. `CNC(=O)NC(=O)CSc1ccc(S(=O)(=O)N2CCOCC2)cn1` was tested, and the Potency was inconclusive: 79.4 µM [inhibitor, partial curve, poor fit]. `CCOc1ccc2nc(Cl)c(C3CC(c4ccco4)=NN3S(C)(=O)=O)cc2c1` (stereo not drawn) was tested, and the Potency was “inactive and inconclusive: 31.6 µM [inhibitor, partial curve, poor fit]”. For `Cn1cccc1/C=C1\SC(=S)N(NC(=O)c2ccc(F)cc2)C1=O`, the Potency was inconclusive: 0.398 µM [inhibitor, single point]. `O=C(N1CCN(S(=O)(=O)c2cccc(F)c2)CC1)N1CC2CC(C1)[C@H]1CCCC(=O)N1C2` (stereo partly drawn) was tested, and the Potency was “inactive”. In the case of `Cc1nc(-c2nc(-c3c(C(=O)NNC(=O)Nc4cccc(Cl)c4)noc3C)cs2)cs1`, the Potency was “inactive”. `CCCCCC(=O)N/N=C(\C)c1ccccn1` was tested, and the Potency was “inactive”. In the case of `Cc1nn(C)cc1CN(C)Cc1cn(C)nc1-c1ccc(C2CCCCC2)cc1`, the Potency was “inactive”. For `COc1cc(C(=O)Nc2nnc(S(=O)(=O)N(C)c3ccccc3)s2)cc(OC)c1OC`, the Potency was inconclusive: 50.1 µM [inhibitor, partial curve, poor fit]. With `O=c1c2ccccc2nc(SCCN2CCCCC2)n1CCc1ccccc1` the Potency was “inactive”. `Clc1cccc(C2Nc3cccc4cccc(c34)N2)c1Cl` was tested, and the Potency was inconclusive: 25.1 µM [inhibitor, single point]. In the case of `COc1ccc(CC(=O)Nc2cccc(NC(=O)C(C)n3cccn3)c2)cc1F` (stereo not drawn), the Potency was “inactive”. In the case of `COc1cc(C(=O)NCC(c2ccc(N(C)C)cc2)N2CCc3ccccc32)cc(OC)c1OC` (stereo not drawn), the Potency was inconclusive: 14.1 µM [inhibitor, full curve, poor fit]. `CC(=O)Nc1cccc(-c2cnc3ccc(Cc4ccc(F)c(F)c4)nn23)c1` was tested, and the Potency was “inactive”. For `COc1ccc(CCNC(=O)c2cc(-c3ccc(C)cc3)nc3n[nH]c(-c4ccccc4)c23)cc1OC`, the Potency was inconclusive: 112 µM [inhibitor, partial curve, poor fit]. For `Cc1oc(-c2cccs2)nc1CC(=O)Nc1ccccc1N1CCCC1`, the Potency was inconclusive: 39.8 µM [inhibitor, partial curve, poor fit]. `CCOc1ccc(Nc2nnc(SCc3nc4ccccc4c(=O)[nH]3)s2)cc1` was tested, and the Potency was inconclusive: 39.8 µM [inhibitor, partial curve, poor fit]. In the case of `CC(C)NC(=O)CN1C(=O)NC(c2ccccc2)C2=C1COC2=O` (stereo not drawn), the Potency was “inactive”. For `CCOc1ccccc1CNC(=O)[C@@]12CCCC[C@H]1N(CCOC)C(=O)CC2`, the Potency was “inactive”. With `CC(/C=N/n1c(-c2cccnc2)n[nH]c1=S)=C\c1ccccc1` the Potency was “inactive”. In the case of `COc1ccc(CNC(=O)CC[C@H]2O[C@@H](n3ccc(=O)[nH]c3=O)[C@H](O)[C@@H]2O)cc1`, the Potency was inconclusive: 100 µM [inhibitor, single point]. With `CCOc1ccc(/C=C/C(=O)c2ccc(Cl)cc2)cc1` the Potency was “inactive”. For `C=CCOc1ccccc1N`, the Potency was active: 5.62 µM. `COCCn1c(C)cc(C(=O)COC(=O)c2cc3c(s2)CCC3)c1C` was tested, and the Potency was “inactive”. `CCCn1c(=O)[nH]c(=O)c2c1nc(-c1ccc(C#N)cc1)n2CCN1CCOCC1` was tested, and the Potency was active: 28.2 µM. In the case of `O=C(/C=C/c1cccc(C(F)(F)F)c1)c1cccc(N2CCCC2=O)c1`, the Potency was “inactive”. In the case of `CC(=O)C1=C(Nc2ccc(C)cc2)CC(C)(O)C(C(C)=O)C1c1ccco1` (stereo not drawn), the Potency was inconclusive: 31.6 µM [inhibitor, full curve, poor fit]. With `Cc1csc(NC(=O)CSc2sc3c(O)cc(=O)[nH]c3c2C#N)n1` the Potency was inconclusive: 44.7 µM [inhibitor, partial curve, poor fit]. With `Cc1ccc(-c2nc3[nH]c(=O)cc(NC(=O)c4cccs4)n3n2)cc1` the Potency was “inactive”. With `CC(NC(=O)c1ccc(Cl)cc1)c1nnc(SCC(=O)NC2=NCCS2)n1C` (stereo not drawn) the Potency was inconclusive: 79.4 µM [inhibitor, partial curve, poor fit]. With `Cc1ccn2c(Nc3ccc(F)cc3)c(-c3ccc(C)o3)nc2c1` the Potency was inconclusive: 141 µM [inhibitor, partial curve, poor fit]. With `Oc1ccccc1-c1nnc(COc2ccc(Cl)cc2Cl)o1` the Potency was inconclusive: 6.31 µM [inhibitor, partial curve, poor fit]. For `Cc1ccc2oc(C(=O)Nc3cccc(C(=O)N(C)C)c3)cc(=O)c2c1`, the Potency was “inactive”. For `O=C(Nc1ccc(F)cc1)N[C@@H]1CC[C@@H](CCn2cc(-c3ccc(F)cc3)nn2)O[C@@H]1CO`, the Potency was inconclusive: 79.4 µM [inhibitor, partial curve, poor fit]. For `O=c1[nH]c(-c2ccc(F)cc2)nc2c1sc(=S)n2-c1ccccc1`, the Potency was “inactive”. For `Fc1ccc(-c2nn(-c3ccccc3)cc2CNCc2ccccc2)cc1`, the Potency was inconclusive: 3.98 µM [inhibitor, full curve, poor fit]. `CCn1cc(S(=O)(=O)N2C[C@@H](Oc3cccnc3)C[C@H]2C(=O)NCCOC)cn1` was tested, and the Potency was “inactive”. For `O=C(Cn1c(=O)c2c(ncn2C2CCCC2)n(Cc2ccccc2)c1=O)NCc1ccc(Cl)cc1`, the Potency was inconclusive: 39.8 µM [inhibitor, partial curve, poor fit]. In the case of `COCCCNC(=O)CCn1ccc2cc(S(=O)(=O)N3CCCCC3)ccc21`, the Potency was “inactive”. With `COc1cccc(CC(=O)N2CCCC(c3nc(-c4ccccc4)no3)CCNC(=O)CC2)c1` (stereo not drawn) the Potency was inconclusive: 35.5 µM [inhibitor, partial curve, poor fit]. `Cn1cc(CN2CCC(n3nccc3NC(=O)c3ccccc3Cl)CC2)c2ccccc21` was tested, and the Potency was “inactive”. `Cn1nccc1NC(=O)Nc1ccc(OC(F)(F)F)cc1` was tested, and the Potency was inconclusive: 112 µM [inhibitor, partial curve, poor fit]. With `Cc1ccc(C2CC2c2n[nH]c(=S)n2-c2ccc(C)cc2)cc1` (stereo not drawn) the Potency was inconclusive: 25.1 µM [inhibitor, partial curve, poor fit]. For `O=C(C[C@@H]1CCNC[C@@H]1Cc1cc(-c2ccccc2)on1)NCc1ccc(F)cc1`, the Potency was inconclusive: 25.1 µM [inhibitor, full curve]. For `COc1ccc(CN2C(=O)C(n3ccc4ccccc43)c3ccccc32)cc1` (stereo not drawn), the Potency was inconclusive: 50.1 µM [inhibitor, partial curve, poor fit]. `O=Cc1nccc2ccccc12` was tested, and the Potency was inconclusive: 2.82 µM [inhibitor, full curve, poor fit]. For `CCOC(=O)c1c(NC(=O)c2cc(CC)on2)sc(C)c1C`, the Potency was “inactive”. In the case of `O=C(O)CCCC(=O)Nc1ccc(C(=O)NCc2cccnc2)cc1`, the Potency was “inactive”.
